Experimental data taken from paper PMC12093383, “Protoporphyrin IX-Derived Ruthenium(II) Complexes for Photodynamic Therapy in Gastric Cancer Cells” (Inorganic Chemistry, 2025).

Assay: Singlet oxygen formation quantum yield, DPBF trap
Conditions: DMSO, white light, relative to verteporfin, N = 3

Row | SMILES | ΦΔ 1O2 quantum yield [%]
1 | C=Cc1c(C)c2cc3nc(cc4[nH]c(cc5nc(cc1[nH]2)C(C)=C5CCC(=O)OC)c(CCC(=O)OC)c4C)C1(C)C3=CCC(C(=O)OC)=C1C(=O)OC (stereo not drawn) [3A] | 46 ± 2.082
2 | C=Cc1c(C)c2cc3nc(cc4[nH]c(cc5nc(cc1[nH]2)C1(C)C5=CCC(C(=O)OC)=C1C(=O)OC)c(C)c4CCC(=O)OC)C(CCC(=O)OC)=C3C (stereo not drawn) [3B] | 42 ± 2.500
3 | C=Cc1c(C)c2cc3nc(cc4[nH]c(cc5nc(cc1[nH]2)C(C)=C5CCC(=O)OCc1ccccc1)c(CCC(=O)OCc1ccccc1)c4C)C1(C)C3=CCC(C(=O)OC)=C1C(=O)OC (stereo not drawn) [4A] | 34 ± 1.041
4 | C=Cc1c(C)c2cc3nc(cc4[nH]c(cc5nc(cc1[nH]2)C1(C)C5=CCC(C(=O)OC)=C1C(=O)OC)c(C)c4CCC(=O)OCc1ccccc1)C(CCC(=O)OCc1ccccc1)=C3C (stereo not drawn) [4B] | 33 ± 2.517
5 | C=CC1=C(C)c2cc3[nH]c(cc4nc(cc5[nH]c(cc1n2)c(C)c5CCC(=O)OC)C(CCC(=O)OC)=C4C)c(C)c3C=C [compound 1] | 34 ± 0.764
6 | C=CC1=C(C)c2cc3[nH]c(cc4nc(cc5[nH]c(cc1n2)c(C)c5CCC(=O)OCc1ccccc1)C(CCC(=O)OCc1ccccc1)=C4C)c(C)c3C=C [compound 2] | 34 ± 1.528
